# Data taken from the supplement of paper PMC10338343.
# ± gives the standard deviation. Some of the results follow. The uncertainty is large for many entries.
# System: EfPiwi piRISC loaded with L1MC piRNA (26 nt)
# Experiment: pre-steady-state target cleavage rate (min^-1); guide: L1MC piRNA 5'p-UAACUAAAUACUAUGCAAGCUGUAGG; MIWI and MILI are mouse PIWI proteins and EfPiwi is from a freshwater sponge; tags in brackets are library labels; higher = faster piRNA-guided slicing of the target
# How it was run: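 Cleave-'n-Seq: a transcribed, DNA-blocked target RNA library (0.1 nM) was mixed with 1 nM active affinity-purified piRISC carrying one synthetic guide, with or without 500 nM GTSF1 partner protein, in HEPES–potassium acetate buffer at 33 °C for 0–8 or 0–960 min. Uncleaved targets were sequenced and normalised to depth and to weakly complementary targets. Three trials were pooled, and k3 was capped at 0.0001 min^-1. The pre-steady-state cleavage rate came from a burst-and-steady-state fit.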
# [1] = auxiliary factor: 500 nM Ephydatia muelleri Gtsf1
# [2] = auxiliary factor: none (no Gtsf1)
Sequence,pre-steady-state target cleavage rate [1],pre-steady-state target cleavage rate [2]
UCCUGAUACAGCUUGCAUAGUAUUUAGUUA,0.0427 ± 0.014,
UCCUGGAUCAGCUUGCAUAGUAUUUAGAAA,0.00346 ± 0.0016,
UCCUGGAACAGGUUGCAAAGUAUUUAGUUA,0.0118 ± 0.0039,
UCCUGGAUGUCGAUCCAUAGUAUUUAGUAA,0.000444 ± 0.013,
UCCUGCUACAGCUCGCAUAGUAUUUAGUUA,0.0122 ± 0.0028,
UCCUCCUACAGCUGCAUAGUAUUUAGUUA,0.0884 ± 0.026,
UCCUGGAUGUCGAAGCAUAGUAAUUAGUAA,0.000725 ± 0.008,
UCCUGCUACUCCUUGCAUAGUAUUUAGUUA,0.0106 ± 0.004,
UCCUGGAUGUCGAACGAUAGGUAUUUAGUUA,,0.000275 ± 0.016
UCCUCCUACAGCAUUGCAUAGUAUUUAGUUA,0.0213 ± 0.0068,
UCCUGGAUGUCGAUGCAUAGAAAUUAGUUA,0.000251 ± 0.012,
UCCUGGAUGUGCUUGCUUAGUAUUUAGUAA,0.00141 ± 0.0054,
UCCUGGAACAGCUUGCAUAGUAAUUUAGUUA,,0.00107 ± 0.01
UCCUGGAUGACCUUGCAUAGUAUAUAGUUA,,0.000241 ± 0.046
UCCUGGAUCAGCUUGCAUAGUUUUAAGUUA,0.00285 ± 0.0028,
UCCUGGAUGAGCAAGCAUAGUAUUUAGUUA,0.0118 ± 0.0048,0.00114 ± 0.0079
UCCUGGAUGAGCUUGGAUAGUUUUUAGUUA,0.0011 ± 0.0031,0.00091 ± 0.011
UCCUGGAUCAGCUUGCAUAGUAGUUAGUUA,0.0207 ± 0.0049,0.0324 ± 0.012
UCCUGGAUGUGCUAGCAUAGUAAUUAGUUA,0.00101 ± 0.0034,0.000367 ± 0.023
UCCUGGAACAGCUUGCAUCGUAUUUAGUUA,0.0172 ± 0.0048,0.00791 ± 0.0048
UCCUGGUACAGCUUGCAUAGUUAAUAGUUA,0.00196 ± 0.0044,0.00331 ± 0.0044
UCCUGCUACAGCUUGGAUUGUAUUUAGUUA,0.00362 ± 0.002,0.00035 ± 0.025
UCCUGGAACUGCUUGCAUAGUUUUUAGUUA,0.00498 ± 0.0026,0.000419 ± 0.022

# Two records drawn at random from those above:
Sequence,pre-steady-state target cleavage rate [1],pre-steady-state target cleavage rate [2]
UCCUGGAACAGGUUGCAAAGUAUUUAGUUA,0.0118 ± 0.0039,
UCCUGGAACAGCUUGCAUCGUAUUUAGUUA,0.0172 ± 0.0048,0.00791 ± 0.0048
